Results: PubChem BioAssay AID485298 (National Center for Advancing Translational Sciences (NCATS), 2010)
Screen size: about 320,000 compounds; about 740 (0.23%) were called active. Inconclusive means that the source gave no clear call. Such entries were picked first, then a sample of the others. Calls follow the shape of the dose curve; as a rule, active = well fitted activation curve with a large enough effect; inconclusive = small, poorly fitted or top-dose-only effect; inactive = no such curve, though single readings can be large or run the other way. Potencies of inconclusive entries are doubtful fits and often do not repeat.

assay: qHTS Assay for Small Molecule Inhibitors of Mitochondrial Division or Activators of Mitochondrial Fusion; also: nearly all actives have a fitted effect of over 45% in size; as to growth rescue (activation): % of control where 0% means no effect; conditions: S. cerevisiae fusion-defective mutant growth rescue, CellTiterGlo 48 h; growth rescue (activation): at 46.1 µM (top of the series) unless noted
Procedure, shortened: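 S. cerevisiae fusion-defective temperature-sensitive mutants (e.g. fzo1-1, mgm1-5) grown 48 h at 37C in YPEG (ethanol/glycerol non-fermentable) medium with 23 nl compound per well; growth rescue read as CellTiterGlo luminescence.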
Potency is read from the fitted curve at half-maximal effect.

SMILES	Potency	growth rescue (activation)
Cc1ccc(S(=O)(=O)N(CCCO)CC(O)CON=C2c3ccccc3-c3ccccc32)cc1 (stereo unspecified)	inconclusive: 28.2 µM [activator, single point]	
COc1cc(NC(=O)CSCc2cnn(-c3ccccc3)c2-n2cccc2)cc(OC)c1	inconclusive: 35.5 µM [activator, single point]	
Cc1ccc(NC(=O)CSCc2cc(=O)n3nc(C4CC4)sc3n2)cc1	inactive	
COC(=O)c1c(N2C(=O)[C@H]3[C@@H](C2=O)[C@]2(C(=O)Nc4ccccc42)N2CCC[C@@H]32)sc(C)c1C	inconclusive: 22.4 µM [activator, single point]	
CO/S(=N\S(=O)(=O)c1ccc(Cl)cc1)c1ccc([N+](=O)[O-])cc1 (stereo unspecified)	inconclusive: 20.6 µM [activator, partial curve]	
COc1ccnc2c1c(=O)n(Cc1cccc(F)c1)c(=O)n2C	inconclusive: 10 µM [activator, partial curve]	
Cc1ccc(N2C(=O)c3cccc4c([N+](=O)[O-])ccc(c34)C2=O)c2cccnc12	inactive	
Cn1cc([N+](=O)[O-])c(C(=O)Nc2ccc(-c3nc4ccccc4o3)cc2)n1	inactive	
O=C(CCCCCN1C(=O)[C@@H]2Cc3ccccc3CN2C1=O)Nc1cccc(F)c1	active: 12.6 µM	
COc1ccccc1N1N=C(c2cccs2)CC1c1ccccc1 (stereo unspecified)	inconclusive: 12.6 µM [activator, partial curve]	
C=CCNC(=S)NNC(=O)COc1ccc2cc(Br)ccc2c1	inconclusive: 35.5 µM [activator, single point]	
COc1ccc(CN(C)S(=O)(=O)c2nnc(NC(=O)c3ccccc3)s2)cc1OC	inconclusive: 5.62 µM [activator, partial curve]	
O=C(NCCCN1CCN(CCCNC(=O)c2ccccc2F)CC1)c1ccccc1F	inactive	
Cc1ccc2nc(Nc3ccc(F)cc3)c3nncn3c2c1	inconclusive: 12.6 µM [activator, partial curve]	
O=C(CSc1nc2nn(-c3ccccc3)c(=O)c-2c2n1CCCCC2)c1ccc(O)c(O)c1	inactive	
O=C(CN(Cc1ccccc1)S(=O)(=O)c1ccccc1)N/N=C/c1ccc([N+](=O)[O-])cc1	inconclusive: 35.5 µM [activator, single point]	
O=C(Nc1ccccc1Oc1ccccc1)c1cc([N+](=O)[O-])ccc1Cl	inconclusive: 15.8 µM [activator, single point]	
Cc1ccc(/C=C2/Sc3ccccc3N(CC(=O)NCCCOC(C)C)C2=O)cc1	inconclusive: 12.6 µM [activator, partial curve]	
Clc1ccc(-c2csc3ncnc(NCCN4CCOCC4)c23)cc1	inactive	
COc1ccccc1NC1=C(NC(C)=O)C(=O)c2ccccc2C1=O	inconclusive: 14.1 µM [activator, partial curve]	
CCc1ccccc1NC(=S)N1CCN(c2ccccc2F)CC1	inconclusive: 35.5 µM [activator, single point]	
CCC(C)c1ccc(O)c(NC(=O)c2cncc(Br)c2)c1 (stereo unspecified)	inconclusive: 22.4 µM [activator, single point]	
NC(=O)Cc1nc(-c2ccc([N+](=O)[O-])cc2)cs1	inconclusive: 2.82 µM [activator, partial curve]	
O=C1CN(C(=O)COC(=O)/C=C/c2ccco2)c2ccccc2N1	inactive	

Rewritten in markdown: 14 of the compounds above

| SMILES | Potency | growth rescue (activation) |
| --- | --- | --- |
| COc1cc(NC(=O)CSCc2cnn(-c3ccccc3)c2-n2cccc2)cc(OC)c1 | inconclusive: 35.5 µM [activator, single point] |  |
| Cc1ccc(NC(=O)CSCc2cc(=O)n3nc(C4CC4)sc3n2)cc1 | inactive |  |
| Cc1ccc(N2C(=O)c3cccc4c([N+](=O)[O-])ccc(c34)C2=O)c2cccnc12 | inactive |  |
| Cn1cc([N+](=O)[O-])c(C(=O)Nc2ccc(-c3nc4ccccc4o3)cc2)n1 | inactive |  |
| O=C(CCCCCN1C(=O)[C@@H]2Cc3ccccc3CN2C1=O)Nc1cccc(F)c1 | active: 12.6 µM |  |
| COc1ccccc1N1N=C(c2cccs2)CC1c1ccccc1 (stereo unspecified) | inconclusive: 12.6 µM [activator, partial curve] |  |
| C=CCNC(=S)NNC(=O)COc1ccc2cc(Br)ccc2c1 | inconclusive: 35.5 µM [activator, single point] |  |
| O=C(NCCCN1CCN(CCCNC(=O)c2ccccc2F)CC1)c1ccccc1F | inactive |  |
| O=C(CSc1nc2nn(-c3ccccc3)c(=O)c-2c2n1CCCCC2)c1ccc(O)c(O)c1 | inactive |  |
| O=C(CN(Cc1ccccc1)S(=O)(=O)c1ccccc1)N/N=C/c1ccc([N+](=O)[O-])cc1 | inconclusive: 35.5 µM [activator, single point] |  |
| Cc1ccc(/C=C2/Sc3ccccc3N(CC(=O)NCCCOC(C)C)C2=O)cc1 | inconclusive: 12.6 µM [activator, partial curve] |  |
| Clc1ccc(-c2csc3ncnc(NCCN4CCOCC4)c23)cc1 | inactive |  |
| CCc1ccccc1NC(=S)N1CCN(c2ccccc2F)CC1 | inconclusive: 35.5 µM [activator, single point] |  |
| O=C1CN(C(=O)COC(=O)/C=C/c2ccco2)c2ccccc2N1 | inactive |  |

Continued:

SMILES	Potency	growth rescue (activation)
N#CC(c1ccccc1)c1cccc(Cl)n1 (stereo unspecified)	inactive	
CC1(c2nnc(-c3ccc(F)cc3)o2)CC(c2c(Cl)cccc2Cl)=NO1 (stereo unspecified)	inconclusive: 14.1 µM [activator, single point]	
Cc1cc(C(=O)CSc2nc3ccccc3c(=O)n2C)c(C)n1CC1CCCO1 (stereo unspecified)	inconclusive: 31.6 µM [activator, partial curve]	
COC(=O)c1cc(-c2cccc([N+](=O)[O-])c2)c2c(=O)[nH]c(=O)n(C)c2n1	inconclusive: 0.562 µM [activator, partial curve, poor fit]	
Cc1cc(NC(=O)c2ccc(Cl)cc2)n(CCOC(=O)c2ccc(Cl)cc2)n1	inconclusive: 15.8 µM [activator, single point]	
O=C1C(Cc2ccccc2)Nc2ncnc(N3CCCCC3)c2N1Cc1ccc(Cl)cc1 (stereo unspecified)	inconclusive: 31.6 µM [activator, single point]	
CCn1c2ccccc2c2cc(/C=N/n3cn[nH]c3=S)ccc21	inactive	
COc1ccc(NC(=O)CN2CCN(S(=O)(=O)c3ccc(Br)cc3)CC2)cc1	inactive	
CCCc1oc2ccc(NS(=O)(=O)c3ccc(OC)cc3)cc2c1C(=O)OCC	inconclusive: 5.62 µM [activator, single point]	
Cc1ccc(-c2csc3nc(SCC(=O)N(C)C)n(Cc4ccccc4)c(=O)c23)cc1	inconclusive: 11.2 µM [activator, partial curve]	
CN(C)/N=C/c1ccc(Sc2ccc([N+](=O)[O-])cc2[N+](=O)[O-])o1	inconclusive: 12.6 µM [activator, partial curve]	
O=S(=O)(c1ccccc1)N1N=C(c2cccs2)CC1c1cccc(O)c1 (stereo unspecified)	inactive	
O=S(=O)(Nc1cccc(-c2ccc(N3CCOCC3)nn2)c1)c1ccc(Cl)c(Cl)c1	inconclusive: 35.5 µM [activator, single point]	
CCOC(=O)c1c(-c2ccccc2)oc2ccc(OC)cc12	inactive	
CCc1ccc2[nH]c(=O)c(CN(CCN(C)C)C(=O)Nc3ccccc3)cc2c1	inactive	
O=C(Nc1ccccc1N1CCN(C(=O)c2ccc(Cl)cc2)CC1)c1cc2ccccc2o1	inconclusive: 7.94 µM [activator, partial curve]	
COc1ccc(NS(=O)(=O)c2cc(NC(=O)c3cnc(C)cn3)ccc2N2CCCC2)cc1	inconclusive: 35.5 µM [activator, single point]	
COc1ccc2c(c1)c(=O)c(C(=O)c1ccccc1)cn2Cc1ccc(C)cc1	inconclusive: 17.8 µM [activator, single point]	
Cc1ccc(C(=O)Nc2nc3ccccc3c(=O)s2)cc1	inactive	
CCCOc1cccc(OCC(=O)Nc2nc3ccccc3[nH]2)c1	inactive	
Cc1ccc(-c2nn(-c3ccccc3)cc2CN(Cc2ccccc2)C(=O)c2ccco2)o1	inactive	
CCC(C)N=Cc1c(NCc2ccco2)nc2c(C)cccn2c1=O (stereo unspecified)	inactive	
Cn1c(C(=O)NN)cc2cc(Oc3ccccc3)ccc21	inactive	
COc1ccc(-c2cc(C(=O)NCC3CCCO3)c3cc(C(C)C)ccc3n2)cc1 (stereo unspecified)	inconclusive: 35.5 µM [activator, partial curve]	

SMILES	Potency	growth rescue (activation)
CCCCOc1ccc(S(=O)(=O)NNC(=O)C2Cc3c(ccc4ccccc34)O2)cc1 (stereo unspecified)	inconclusive: 35.5 µM [activator, single point]	
CC1(C)Cc2nc3oc4c(NCc5ccccc5)ncnc4c3cc2CO1		inconclusive: 37.6% [activator] [at 0.369 µM]
O=C(COc1ccc(Cl)cc1)Nc1ccc(N2CCN(C(=O)c3ccco3)CC2)cc1	inactive	
CN(C)c1cccc(/C=C(\C#N)c2ccccc2)c1	inactive	
O=C(COc1ccccc1)Nc1ccccc1Oc1ccccc1	inconclusive: 22.4 µM [activator, single point]	
O=C(CNCc1cccs1)Nc1cc(S(=O)(=O)N2CCCC2)ccc1Cl	inconclusive: 2.82 µM [activator, partial curve]	
CC1(C)CC(N2CCCCC2)=CC(=[N+]2CCCCC2)C1	inconclusive: 14.1 µM [activator, partial curve]	
COC(=O)c1c(C)[nH]c(C)c1C(=O)c1ccccc1Cc1ccccc1	active: 2.91 µM	
COc1cc(S(=O)(=O)n2ccc(C)n2)ccc1Cl	inactive	
O=C(Nc1ccc(OCc2ccccc2)cc1)c1cccnc1	inactive	
COc1ccccc1N1CCN(C(=O)C2CCN(S(=O)(=O)c3ccc4c(c3)CC(C)N4C(=O)C3CC3)CC2)CC1 (stereo unspecified)	inactive	
COc1ccccc1CN(C)C(=O)C(c1ccccc1)c1ccccc1	inconclusive: 12.6 µM [activator, partial curve]	
O=c1c2ccccc2nc(/C=C/c2cccc(Br)c2)n1CCCO	active: 11.2 µM	
CCNC(=O)CSc1nc2cc(S(=O)(=O)Nc3ccc(OC)cc3)ccc2o1	inactive	
COc1ccc(S(=O)(=O)NCC(c2cccs2)N2CCc3ccccc3C2)cc1 (stereo unspecified)	inconclusive: 25.1 µM [activator, single point]	
O=C1CC(SC(=Nc2ccccc2)Nc2ccccc2)C(=O)N1c1cccc(Cl)c1 (stereo unspecified)	inactive	
O=C(CSc1nc2c(sc3ccccc32)c(=O)n1CCCN1CCCC1)NCc1ccco1	inconclusive: 35.5 µM [activator, single point]	
O=C(N/N=C/c1ccc(OC(F)F)cc1)c1cccc(S(=O)(=O)N2CCOCC2)c1	inconclusive: 6.31 µM [activator, single point]	
COC(=O)[C@]1(CC(C)C)N[C@H](c2ccc(-c3ccc(F)cc3)cc2)[C@@H]2C(=O)N(C)C(=O)[C@@H]21	inconclusive: 15.8 µM [activator, single point]	
Fc1ccc(-c2nnc3n2CCCCC3)cc1	active: 15.8 µM	
COc1ccc(-c2csc(N)n2)cc1F	inconclusive: 22.4 µM [activator, partial curve]	
Cc1nc2ccccc2c(=O)n1NC(=O)c1ccccc1Br	inactive	
O=C(c1ccccc1)c1cc([N+](=O)[O-])ccc1N1CCCC1	inconclusive: 17.8 µM [activator, single point]	
